In the supplement of paper PMC10735217:
Structures can show the parent of a compound that is named as a salt. The list shows a part of the results. Repeats in this data set agree poorly, so a single value says little.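 Human kidney-derived cells stably carry a construct in which eight TEAD-binding elements drive luciferase, measured by luminescence in a drug-repurposing library screen. A hit is any compound whose signal exceeds the plate mean by more than five robust Z scores.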

System: HEK293A TEAD-LUC reporter
Assay: TEAD-luciferase reporter activity (YAP activation), robust Z score vs plate; higher = stronger YAP/TEAD activation
Details: 24 h

Row | SMILES | TEAD-luciferase reporter activity (compound concentration: 200 nM) | TEAD-luciferase reporter activity (compound concentration: 2 uM) | TEAD-luciferase reporter activity (compound concentration: 10 uM)
1 | NCCCC[C@H](NC(=O)[C@H](Cc1c[nH]cn1)NC(=O)CN)C(=O)O [Glycyl-L-histidyl-L-lysine] | inactive: 0.457 | inactive: 0.424 | inactive: -0.0219
2 | COc1cccc(C(=O)NC[C@@H]2CC[C@H]3C[C@@H]2C3(C)C)c1 | inactive: 4.18 |  | inactive: 3.35
3 | Cc1ccc(S(=O)(=O)OCC(=O)Nc2ccc(C(=O)O)c(O)c2)cc1 | inactive: -3.69 | inactive: -1.61 | inactive: 0.638
4 | CN(C)CCC(Oc1ccc2oc(-c3ccccc3)cc(=O)c2c1)c1ccccc1 (stereo not given) | inactive: 2.64 | inactive: -0.553 | inactive: -0.855
5 | CNC(=S)C1(c2cccnc2)CCCC[S+]1[O-] (stereo not given) | inactive: -0.549 | inactive: -0.791 | inactive: -0.0436
6 | CCOc1cc(C(CC(=O)NOC(=O)CC)N2C(=O)c3ccccc3C2=O)ccc1OC (stereo not given) | inactive: -0.737 | inactive: 0.406 | inactive: -0.191
7 | CC(C)C[C@H](NC(=O)CNC(=O)c1cc(Cl)ccc1Cl)B(O)O [Ixazomib] | inactive: 4.69 | inactive: -0.777 | inactive: 3.19
8 | CC1CC(O)(CC(=O)O)c2cc(F)c(Cl)cc2O1 (stereo not given) | inactive: -1.54 | inactive: -0.681 | inactive: -0.963
9 | CC[C@H](C)[C@H](N)C(=O)N[C@@H](CC(=O)O)C(=O)N[C@@H](CCC(N)=O)C(=O)N[C@@H](CCC(N)=O)C(=O)N[C@H](C(=O)N[C@@H](CC(C)C)C(=O)N[C@@H](CO)C(=O)N[C@@H](CCCNC(=N)N)C(=O)N[C@H](C(=O)N[C@@H](CCCCN)C(=O)N[C@@H](CC(C)C)C(=O)N[C@@H](CCC(=O)O)C(=O)N[C@H](C(=O)N[C@@H](CCCCN)C(=O)N[C@@H](CCCNC(=N)N)C(=O)N[C@@H](CS)C(=O)N[C@@H](CC(C)C)C(=O)O)[C@@H](C)CC)[C@@H](C)CC)C(C)C [Fexapotide triflutate] | inactive: -0.854 | inactive: -0.534 | inactive: 0.213
10 | COC(=O)c1ccc2c(c1)NC(=O)/C2=C(\Nc1ccc(N(C)C(=O)CN2CCN(C)CC2)cc1)c1ccccc1 [nintedanib] | inactive: -0.644 | inactive: -0.843 | inactive: 3.33
11 | C[C@]12CCC(=O)C=C1CC[C@H]1[C@@H]3CC[C@](O)(C(=O)CO)[C@@]3(C)C[C@H](O)[C@@]12F | inactive: -0.522 | inactive: -1.04 | inactive: -0.393
12 | O=C(O)COc1cccc2c1CC[C@@](O)(COC(=O)N(c1ccccc1)c1ccccc1)C2 | inactive: 0.596 | inactive: 0.278 | inactive: 1.72
13 | CSc1nc2cc(Oc3cccc(Cl)c3Cl)c(Cl)cc2[nH]1 [Triclabendazole] | inactive: -2.23 |  | inactive: -0.602
14 | CCC[C@@H](NC(=O)N1C(=O)C(CC)(CC)[C@@H]1Oc1ccc(CC(=O)O)cc1)c1ccc(C)cc1 | inactive: -1.54 | inactive: -1.71 | inactive: -0.293
15 | CNC(=O)N1CC(Oc2cccc(C(F)(F)F)c2)C1 | inactive: 1.33 | inactive: -1.11 | inactive: -1.31
16 | CCN(CC)CCOc1ccc(-c2nc3cc(Cl)ccc3s2)cc1 | inactive: 2.15 | inactive: 0.782 | inactive: 3.01

Row | SMILES | TEAD-luciferase reporter activity (compound concentration: 200 nM) | TEAD-luciferase reporter activity (compound concentration: 2 uM) | TEAD-luciferase reporter activity (compound concentration: 10 uM)
17 | O=P([O-])(O)C(Cl)(Cl)P(=O)([O-])O [clodronate disodium, Abiogen] | inactive: -0.364 | inactive: 3.17 | inactive: -1.2
18 | CC1(C)CCC(c2ccc(Cl)cc2)=C(CN2CCN(c3ccc(C(=O)NS(=O)(=O)c4ccc(N[C@H](CCN5CCOCC5)CSc5ccccc5)c(S(=O)(=O)C(F)(F)F)c4)cc3)CC2)C1 [navitoclax] | inactive: 2.53 | inactive: -1.07 | inactive: -0.831
19 | C[C@@H](O)[C@H]1C(=O)N2C(C(=O)[O-])=C(SC(=S)N(C)CCO)[C@H](C)[C@H]12 | inactive: -0.281 | inactive: -0.647 | inactive: 0.378
20 | NCCCCN(Cc1nc2ccccc2[nH]1)[C@H]1CCCc2cccnc21 | inactive: -1.38 | inactive: 0.157 | inactive: -0.0607
21 | O=C(c1cc(-c2ccccc2)c(=O)n2c1-c1cc(Cl)ccc1CC2)N1CC[C@H](O)C1 | inactive: 1.95 | inactive: 0.864 | inactive: -0.798
22 | CC(=O)NC[C@H]1CN(c2cc(F)c(N3CCS(=O)(=O)CC3)c(F)c2)C(=O)O1 | inactive: -1.45 | inactive: -0.616 | inactive: 1.27
23 | Cc1ncccc1C(C#N)N1CCN(C(=O)CNC(c2ccccc2)c2ccccc2)CC1 (stereo not given) | inactive: -1.2 | inactive: 2.13 | inactive: 0.852
24 | CCOC(=O)COc1cc(C)c(CCN[C@@H](C)[C@H](O)c2ccc(O)cc2)cc1C | inactive: -0.819 | inactive: 1.87 | inactive: -1.12
25 | CON [Methoxyamine HCl] |  | inactive: -0.622 | 
26 | CON [Hydroxylamine, O-methyl-] | inactive: -0.24 |  | inactive: -1.27
27 | CN(C)CC(=O)N1Cc2ccccc2CC2(CCCN2C)C1 (stereo not given) | active: 6.42 |  | inactive: 1.17
28 | CC(=O)N[C@H]1CSSC(C)(C)[C@@H](C(N)=O)NC(=O)[C@@H](CC(=O)O)NC(=O)CNC(=O)[C@H](CCCNC(=N)N)N(C)C1=O | inactive: 2.74 | inactive: -0.352 | inactive: 1.52
29 | Cc1cnc(CSc2nc3ccccc3[nH]2)c(C)c1OCC1COC(C)(C)OC1 [analog of E-3710] | active: 8.5 | inactive: 1.27 | inactive: 2.2
30 | COc1ccccc1CN[C@@H]1CCCN[C@@H]1c1ccccc1 | inactive: -0.857 | inactive: -1.5 | inactive: -1.59
31 | COc1cccc2c1CCC(=O)N2CCCN1CCN(c2cccc(Cl)c2)CC1 | inactive: -0.567 | inactive: 0.865 | inactive: 2.43
32 | Cc1cc(Nc2ccc(S(F)(F)(F)(F)F)cc2)n2nc(C(C)(F)F)nc2n1 | inactive: 4.9 | inactive: -0.293 | inactive: 4.43
